Experimental data taken from PMC8346139, “Synthesis of New Tricyclic 1,2-Thiazine Derivatives with Anti-Inflammatory Activity” (International Journal of Molecular Sciences, 2021).

Assay: Differential scanning calorimetry (DSC) of DPPC model membranes
Type: physicochemical
Conditions: pH 7.4, ±SD
[1] = molar ratio compound:lipid 0.06
[2] = molar ratio compound:lipid 0.08
[3] = molar ratio compound:lipid 0.12

**Q.** Which “DPPC ΔH (transition enthalpy changes)” value [1] does the source give for `O=C(C1=C(O)c2ccccc2S(=O)(=O)N1)c1ccccc1` [Compound 4a] here?
**A.** 42.9 ± 2.29 J/g

**Q.** What about the “DPPC ΔH (transition enthalpy changes)” value [2] of the same compound?
**A.** 40.3 ± 0.85 J/g

**Q.** And the “DPPC ΔH (transition enthalpy changes)” value (molar ratio compound:lipid 0.1)?
**A.** 35.2 ± 0.99 J/g

**Q.** What about the “DPPC ΔH (transition enthalpy changes)” value [3] of the same compound?
**A.** 37.8 ± 0.43 J/g

**Q.** Which “DPPC ΔH (transition enthalpy changes)” value [1] does the source give for `O=C(C1=C(O)c2ccccc2S(=O)(=O)N1)c1ccc(Cl)cc1` [Compound 4c] here?
**A.** 40.0 ± 1.94 J/g

**Q.** And the “DPPC ΔH (transition enthalpy changes)” value [2]?
**A.** 33.9 ± 1.41 J/g

**Q.** And the “DPPC ΔH (transition enthalpy changes)” value (molar ratio compound:lipid 0.1)?
**A.** 30.7 ± 0.11 J/g

**Q.** And the “DPPC ΔH (transition enthalpy changes)” value [3]?
**A.** 24.4 ± 1.16 J/g

**Q.** With `Cc1ccc(C(=O)C2=C(O)c3ccccc3S(=O)(=O)N2)cc1` [Compound 4d] as the compound, how does the “DPPC ΔH (transition enthalpy changes)” value [1] read?
**A.** 39.2 ± 1.71 J/g

**Q.** What about the “DPPC ΔH (transition enthalpy changes)” value [2] of the same compound?
**A.** 31.2 ± 1.78 J/g

**Q.** And the “DPPC ΔH (transition enthalpy changes)” value (molar ratio compound:lipid 0.1)?
**A.** 25.1 ± 2.27 J/g

**Q.** What about the “DPPC ΔH (transition enthalpy changes)” value [3] of the same compound?
**A.** 23.4 ± 4.41 J/g

**Q.** For `O=C1C2=C(c3ccccc3)OCCN2S(=O)(=O)c2ccccc21` [Compound 5, 6,6-dioxo-1-phenyl-3,4-dihydro-[1,4] oxazino [4,3-b][1,2]benzothiazin-11-one], which “DPPC ΔH (transition enthalpy changes)” value [1] is on record?
**A.** 44.2 ± 1.43 J/g

**Q.** What about the “DPPC ΔH (transition enthalpy changes)” value [2] of the same compound?
**A.** 33.5 ± 0.09 J/g

**Q.** And the “DPPC ΔH (transition enthalpy changes)” value (molar ratio compound:lipid 0.1)?
**A.** 34.2 ± 0.79 J/g

**Q.** And the “DPPC ΔH (transition enthalpy changes)” value [3]?
**A.** 29.3 ± 1.61 J/g

**Q.** With `O=C1C2=C(c3ccccc3)OCCCN2S(=O)(=O)c2ccccc21` [Compound 6a, 7,7-dioxo-1-phenyl-4,5-dihydro-3H-[1,4]oxazepino[4,3-b][1,2]benzothiazin-12-one] as the compound, how does the “DPPC ΔH (transition enthalpy changes)” value [1] read?
**A.** 38.2 ± 0.20 J/g

**Q.** And the “DPPC ΔH (transition enthalpy changes)” value [2]?
**A.** 34.6 ± 0.27 J/g

**Q.** What about the “DPPC ΔH (transition enthalpy changes)” value (molar ratio compound:lipid 0.1) of the same compound?
**A.** 32.5 ± 0.12 J/g

**Q.** What about the “DPPC ΔH (transition enthalpy changes)” value [3] of the same compound?
**A.** 35.1 ± 0.18 J/g

**Q.** With `O=C1C2=C(c3ccc(Br)cc3)OCCCN2S(=O)(=O)c2ccccc21` [Compound 6b, 1-(4-bromophenyl)-7,7-dioxo-4,5-dihydro-3H-[1,4]oxazepino[4,3-b][1,2]benzothiazin-12-one] as the compound, how does the “DPPC ΔH (transition enthalpy changes)” value [1] read?
**A.** 42.4 ± 0.06 J/g

**Q.** What about the “DPPC ΔH (transition enthalpy changes)” value [2] of the same compound?
**A.** 33.4 ± 0.52 J/g

**Q.** And the “DPPC ΔH (transition enthalpy changes)” value (molar ratio compound:lipid 0.1)?
**A.** 22.6 ± 1.43 J/g

**Q.** And the “DPPC ΔH (transition enthalpy changes)” value [3]?
**A.** 28.5 ± 0.81 J/g

**Q.** With `O=C1C2=C(c3ccc(Cl)cc3)OCCCN2S(=O)(=O)c2ccccc21` [Compound 6c, 1-(4-chlorophenyl)-7,7-dioxo-4,5-dihydro-3H-[1,4]oxazepino[4,3-b][1,2]benzothiazin-12-one] as the compound, how does the “DPPC ΔH (transition enthalpy changes)” value [1] read?
**A.** 39.6 ± 0.81 J/g

**Q.** What about the “DPPC ΔH (transition enthalpy changes)” value [2] of the same compound?
**A.** 35.4 ± 0.01 J/g

**Q.** What about the “DPPC ΔH (transition enthalpy changes)” value (molar ratio compound:lipid 0.1) of the same compound?
**A.** 34.2 ± 0.29 J/g

**Q.** What about the “DPPC ΔH (transition enthalpy changes)” value [3] of the same compound?
**A.** 34.9 ± 3.09 J/g

**Q.** Which results are given for `Cc1ccc(C2=C3C(=O)c4ccccc4S(=O)(=O)N3CCCO2)cc1` [Compound 6d, 7,7-dioxo-1-(p-tolyl)-4,5-dihydro-3H-[1,4]oxazepino[4,3-b][1,2]benzothiazin-12-one]?
**A.** DPPC ΔH (transition enthalpy changes) [1]: 40.2 ± 0.12 J/g; DPPC ΔH (transition enthalpy changes) [2]: 36.1 ± 0.60 J/g; DPPC ΔH (transition enthalpy changes) (molar ratio compound:lipid 0.1): 29.5 ± 0.19 J/g; DPPC ΔH (transition enthalpy changes) [3]: 29.6 ± 0.31 J/g

**Q.** With `COc1ccc(C2=C3C(=O)c4ccccc4S(=O)(=O)N3CCCO2)cc1` [Compound 6e, 1-(4-methoxyphenyl)-7,7-dioxo-4,5-dihydro-3H-[1,4]oxazepino[4,3-b][1,2]benzothiazin-12-one] as the compound, how does the “DPPC ΔH (transition enthalpy changes)” value [1] read?
**A.** 42.5 ± 1.51 J/g

**Q.** And the “DPPC ΔH (transition enthalpy changes)” value [2]?
**A.** 38.5 ± 0.53 J/g

**Q.** And the “DPPC ΔH (transition enthalpy changes)” value (molar ratio compound:lipid 0.1)?
**A.** 37.4 ± 0.43 J/g

**Q.** And the “DPPC ΔH (transition enthalpy changes)” value [3]?
**A.** 33.0 ± 0.51 J/g

**Q.** What does the source list for `O=C1C2=C(c3ccccc3)OCCCCN2S(=O)(=O)c2ccccc21` [Compound 7, 8,8-dioxo-1-phenyl-3,4,5,6-tetrahydro-[1,4]oxazocino[4,3-b][1,2]benzothiazin-13-one]?
**A.** DPPC ΔH (transition enthalpy changes) [1]: 44.0 ± 2.06 J/g; DPPC ΔH (transition enthalpy changes) [2]: 38.3 ± 1.17 J/g; DPPC ΔH (transition enthalpy changes) (molar ratio compound:lipid 0.1): 36.1 ± 0.64 J/g; DPPC ΔH (transition enthalpy changes) [3]: 42.2 ± 1.43 J/g
